Binding data for two molecules are collected here from publication PMC5662619.

Assay [1] addresses T1, Pyo-tagged ARAF^1–287 (ARAF NTR) (UniProt P10398).
T1 sequence: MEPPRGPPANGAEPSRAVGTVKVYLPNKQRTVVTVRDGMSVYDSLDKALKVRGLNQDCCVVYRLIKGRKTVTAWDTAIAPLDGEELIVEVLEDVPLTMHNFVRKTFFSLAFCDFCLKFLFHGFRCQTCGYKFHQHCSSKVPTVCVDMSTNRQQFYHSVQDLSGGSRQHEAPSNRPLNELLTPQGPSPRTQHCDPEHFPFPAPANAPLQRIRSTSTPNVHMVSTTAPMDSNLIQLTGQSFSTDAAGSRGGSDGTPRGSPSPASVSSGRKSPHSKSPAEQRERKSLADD
Nature of the assay: co-IP; lysates of HEK293T cells (Triton lysis buffer: 50 mM Tris-HCl pH 7.5, 150 mM NaCl, 0.2% Triton X-100, 1 mM EDTA, 10% glycerol), starved overnight, treated with DMSO or kinase inhibitors (1 or 10 µM, 2 h); primary antibody and protein A/G beads, 4 °C, 4 h.

Assay [2] addresses T2, Pyo-tagged KSR1^1–558 (KSR1 NTR) (UniProt Q8IVT5).
T2 sequence: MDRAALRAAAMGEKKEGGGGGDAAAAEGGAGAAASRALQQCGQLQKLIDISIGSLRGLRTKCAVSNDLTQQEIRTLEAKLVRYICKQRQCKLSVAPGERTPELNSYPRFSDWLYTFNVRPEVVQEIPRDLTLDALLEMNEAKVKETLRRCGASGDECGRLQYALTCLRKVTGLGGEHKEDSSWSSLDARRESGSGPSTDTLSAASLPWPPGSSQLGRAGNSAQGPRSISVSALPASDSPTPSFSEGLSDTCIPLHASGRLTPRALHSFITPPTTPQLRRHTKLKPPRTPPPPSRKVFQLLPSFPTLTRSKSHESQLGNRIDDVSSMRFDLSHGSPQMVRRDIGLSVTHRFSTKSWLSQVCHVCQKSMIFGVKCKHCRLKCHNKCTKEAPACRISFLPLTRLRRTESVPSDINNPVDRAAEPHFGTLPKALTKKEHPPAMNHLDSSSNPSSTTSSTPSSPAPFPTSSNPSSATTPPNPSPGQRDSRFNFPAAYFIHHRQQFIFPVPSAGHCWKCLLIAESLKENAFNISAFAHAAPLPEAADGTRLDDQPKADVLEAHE
The assay is described as above.

No constants are given. Whether binding was seen depends on the method and setting. In cells and extracts the contact can be indirect. Some binding calls cover weakened binding; strength is not graded here. Where a sequence is shown, tags or fusion partners need not be part of it.

B1: Flag-tagged ARAF^288–606 (ARAF kinase domain) (domain or fragment, UniProt P10398 288-606)
chain: KKKVKNLGYRDSGYYWEVPPSEVQLLKRIGTGSFGTVFRGRWHGDVAVKVLKVSQPTAEQAQAFKNEMQVLRKTRHVNILLFMGFMTRPGFAIITQWCEGSSLYHHLHVADTRFDMVQLIDVARQTAQGMDYLHAKNIIHRDLKSNNIFLHEGLTVKIGDFGLATVKTRWSGAQPLEQPSGSVLWMAAEVIRMQDPNPYSFQSDVYAYGVVLYELMTGSLPYSHIGCRDQIIFMVGRGYLSPDLSKISSNCPKAMRRLLSDCLKFQREERPLFPQILATIELLQRSLPKIERSASEPSLHRTQADELPACLLSAARLVP
With B1, in assay [1], the binding entry is “binds”.

B2: Flag-tagged KSR1^591–899 (KSR1 kinase domain) (domain or fragment, UniProt Q8IVT5 591-899)
chain: PISRKASQTSVYLQEWDIPFEQVELGEPIGQGRWGRVHRGRWHGEVAIRLLEMDGHNQDHLKLFKKEVMNYRQTRHENVVLFMGACMNPPHLAIITSFCKGRTLHSFVRDPKTSLDINKTRQIAQEIIKGMGYLHAKGIVHKDLKSKNVFYDNGKVVITDFGLFGISGVVREGRRENQLKLSHDWLCYLAPEIVREMTPGKDEDQLPFSKAADVYAFGTVWYELQARDWPLKNQAAEASIWQIGSGEGMKRVLTSVSLGKEVSEILSACWAFDLQERPSFSLLMDMLEKLPKLNRRLSHPGHFWKSADI
For B2, the binding result in assay [2] is on record as “binds”.
